Results published in the supplement of paper PMC7125110.
± gives the standard error. The uncertainty is large for many entries.

B1: glmS ribozyme (parent)
chain: AUAAAAGCGCCAGAACUACAGAAAUGUAGUUGACGAGGAGGAGGUUUAUCGAAUUUUCGGCGGAUGCCUCCAAA

Variants of: B1
Test: self-cleavage kobs at 2500 uM GlcN6P; higher = faster cleavage; RNA array
Details: with glucosamine-6-phosphate
Outline: (§1)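 kcat and KM were obtained from weighted Michaelis–Menten fits across concentrations of kobs values. Those came from one- or two-exponential decay fits to per-tile medians normalised to baseline and to non-cleaving reference variants. The variants were barcoded ribozymes transcribed in situ by E. coli RNA polymerase on sequenced MiSeq chips and tracked through a hybridised Cy3 probe at 37 °C, with 40 μM to 10 mM glucosamine-6-phosphate in HEPES/KCl/Mg(OAc)2 buffer flowed in.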

Row | Variant | self-cleavage kobs at 2500 uM GlcN6P [s⁻¹]
1 | A12C U31A U55C C70U | 2.72e-05 ± 2e-05
2 | C50U G62U C68G | 0.00042 ± 0.00027
3 | A15U G32U G40C | 2.53e-05 ± 2.5e-05
4 | A12G G32A | 1.26e-05 ± 1.1e-05
5 | C58A A64G C68A | 3.01e-05 ± 1.9e-05
6 | G29U A52U | 3.75e-05 ± 2.9e-05
7 | G29A C68A | 2.08e-05 ± 1.5e-05
8 | C16U A39U A64C | 5.12e-05 ± 3e-05
9 | A12U A52C C67A | 2.77e-05 ± 2.4e-05
10 | G44A A52G | 3.02e-05 ± 1.8e-05
11 | C34G C68A | 3.1e-05 ± 2.5e-05
12 | A33U A39U U47G | 4.21e-05 ± 3e-05
13 | G44C G66A C71U | 3.9e-05 ± 2.1e-05
14 | A15G G59U C67U | 3.17e-05 ± 2.9e-05
15 | C34G C70A | 2.48e-05 ± 1.8e-05
16 | U57C C70G | 2.31e-05 ± 1.4e-05
17 | G13A C70A | 3e-05 ± 1.6e-05
18 | C10U U55G | 2.66e-05 ± 1.6e-05
19 | C16G U56A C71G | 2.09e-05 ± 1.8e-05
20 | A12C A36C U54G | 0.00012 ± 6.3e-05

Row | Variant | self-cleavage kobs at 2500 uM GlcN6P [s⁻¹]
21 | A39C U49G U54C | 2.48e-05 ± 2.2e-05
22 | U57G C67A | 3.12e-05 ± 2.9e-05
23 | A12U C70G | 0.00294 ± 0.0016
24 | G13C C58G | 1.25e-05 ± 9e-06
25 | G29C A33G C68G | 4.76e-05 ± 3.5e-05
26 | G37C U55A G62A | 2.39e-05 ± 1.8e-05
27 | A42U A52U | 1.55e-05 ± 1.3e-05
28 | G7C C8G C50G U55A | 4.98e-05 ± 3.3e-05
29 | A14U G62U C68A U69G | 3.52e-05 ± 2.9e-05
30 | C8A G13A G37U G59C C68G | 5.27e-05 ± 3e-05
31 | G29U G38U C68A | 4.37e-05 ± 3.5e-05
32 | C58U A64U U69G | 4.08e-05 ± 2.7e-05
33 | C10A C68G C71U | 5.18e-05 ± 2.8e-05
34 | G29U C50G | 4.52e-05 ± 2.7e-05
35 | G51A G63U C70G | 5.84e-05 ± 3.5e-05
36 | A14G A39G | 0.0733 ± 0.037
37 | U46C C58U | 2.18e-05 ± 1.3e-05
38 | G13U U56A U65A C71U | 2.22e-05 ± 2.2e-05
39 | G59U U65G C67U | 0.00291 ± 0.0025
40 | G40C G41C | 1.76e-05 ± 1.6e-05

Given comma-delimited: part of the list above
Row,Variant,self-cleavage kobs at 2500 uM GlcN6P [s⁻¹]
22,U57G C67A,3.12e-05 ± 2.9e-05
23,A12U C70G,0.00294 ± 0.0016

Variants of: B1
Test: self-cleavage kobs at 640 uM GlcN6P; higher = faster cleavage; RNA array
Details: with glucosamine-6-phosphate
Outline: as §1

Row | Variant | self-cleavage kobs at 640 uM GlcN6P [s⁻¹]
41 | G43U C67U | 2.21e-05 ± 1.8e-05
42 | G13U A42G | 0.000312 ± 0.00021
43 | U47G C50A A64C | 2.5e-05 ± 1.8e-05
44 | U31A A42U | 1.39e-05 ± 1.1e-05
45 | G38U U49A C61U C70G | 4.45e-05 ± 3.8e-05
46 | A14U C58U C70G | 4.71e-05 ± 3.6e-05
47 | C11U A15G G35A C70G C71G | 0.00235 ± 0.0017
48 | A42U U45C U55A | 4.1e-05 ± 2.2e-05
49 | G41A U47C | 1.87e-05 ± 1.2e-05
50 | G32C A33G U49A C68A | 4.36e-05 ± 2.5e-05
51 | U57G C67A | 4.59e-05 ± 2.4e-05
52 | C16G C58U | 2.02e-05 ± 1.7e-05
53 | U45G U69A | 0.000174 ± 0.00011
54 | C8A G37U G38A A53C G60U C67G C68A | 2.46e-05 ± 2.4e-05
55 | U31C C67A C68G | 1.8e-05 ± 1.7e-05
56 | A14U G62U C68A U69G | 3.03e-05 ± 2.3e-05
57 | G9A C11G A14G G62A C70G | 0.00139 ± 0.0011
58 | A64C U69G | 2.13e-05 ± 1.6e-05
59 | C10A C68G C71U | 0.000211 ± 0.00011
60 | G59U C67U | 1.54e-05 ± 1.1e-05
61 | C11A C16U A53U | 4.31e-05 ± 2.3e-05
62 | A6U C16U C68U | 4.4e-05 ± 3e-05

A section from the list above, as a working copy:
Row | Variant | self-cleavage kobs at 640 uM GlcN6P [s⁻¹]
56 | A14U G62U C68A U69G | 3.03e-05 ± 2.3e-05
57 | G9A C11G A14G G62A C70G | 0.00139 ± 0.0011
58 | A64C U69G | 2.13e-05 ± 1.6e-05

Variants of: B1
Test: self-cleavage kobs at 10000 uM GlcN6P; higher = faster cleavage; RNA array
Details: with glucosamine-6-phosphate
Outline: as §1

Row | Variant | self-cleavage kobs at 10000 uM GlcN6P [s⁻¹]
63 | U30A U31C C50G U56G C61G | 2.61e-05 ± 1.7e-05
64 | G29A C68G | 1.54e-05 ± 1.2e-05
65 | A12U A52C C67A | 2.29e-05 ± 1.9e-05
66 | G44A A52G | 2.29e-05 ± 1.6e-05
67 | U30C C58A | 1.34e-05 ± 1.2e-05
68 | C34G C70G | 1.97e-05 ± 1.5e-05
69 | U57C C70G | 1.58e-05 ± 1.5e-05
70 | U46C C70G C71A | 4.43e-05 ± 2.3e-05
71 | C10A C50U C67G | 2.67e-05 ± 2.3e-05
72 | A36U C68U | 0.000902 ± 0.0005
73 | U30A U57G | 1.86e-05 ± 1.7e-05
74 | A14U G37C | 2.38e-05 ± 1.5e-05
75 | C10A U57A C68A | 1.98e-05 ± 1.7e-05
76 | G9A C11G A14G G62A C70G | 4.35e-05 ± 2.2e-05
77 | C11G C34A U65G C70G | 2.56e-05 ± 2.4e-05
78 | G59U C67U | 1.72e-05 ± 9e-06
79 | A15G C61U | 1.81e-05 ± 9.1e-06
80 | G29U C50G | 2.64e-05 ± 1.4e-05

Variants of: B1
Test: self-cleavage kobs at 160 uM GlcN6P; higher = faster cleavage; RNA array
Details: with glucosamine-6-phosphate
Outline: as §1

Row | Variant | self-cleavage kobs at 160 uM GlcN6P [s⁻¹]
81 | A15C U47C C71U | 4.42e-05 ± 3e-05
82 | A12G C70A | 2.98e-05 ± 1.6e-05
83 | C34G C70A | 2.05e-05 ± 1.9e-05
84 | A6C U49G C50U U69C | 2.46e-05 ± 2.2e-05
85 | A14U G62U C68A U69G | 3.9e-05 ± 2.7e-05
86 | C8G G38U C68G | 0.000361 ± 0.00026
87 | A14G G59A | 1.91e-05 ± 1.2e-05
88 | A6G U56G | 1.61e-05 ± 1.5e-05

Variants of: B1
Test: self-cleavage kobs at 40 uM GlcN6P; higher = faster cleavage; RNA array
Details: with glucosamine-6-phosphate
Outline: as §1

Row | Variant | self-cleavage kobs at 40 uM GlcN6P [s⁻¹]
89 | U46C C70G C71A | 4.04e-05 ± 2.5e-05
90 | U57G C58G C67G | 3.46e-05 ± 2.7e-05
91 | A39U A53U C70G | 2.64e-05 ± 1.4e-05
